Publication PMC10441986
Results are given in words; binding and its absence hold for the method and conditions named. For some assays here: Binding seen in cells or lysates may run through a third protein. Some binding calls cover weakened binding; strength is not graded here. Sequences can lack the tags named with a protein.

T1: ornithine decarboxylase antizyme 1 (OAZ1) of Recilia dorsalis, yeast two-hybrid fusion (Recilia dorsalis)
T1 sequence: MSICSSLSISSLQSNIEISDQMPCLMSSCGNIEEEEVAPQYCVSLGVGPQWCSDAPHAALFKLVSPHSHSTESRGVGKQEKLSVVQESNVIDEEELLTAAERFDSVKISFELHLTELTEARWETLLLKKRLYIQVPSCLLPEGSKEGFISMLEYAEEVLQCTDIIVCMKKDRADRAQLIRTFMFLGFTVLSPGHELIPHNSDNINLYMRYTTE

T2: GST-OAZ1 (OAZ1 of Recilia dorsalis fused with GST) (Recilia dorsalis)
T2 sequence: T1 sequence

B1: ornithine decarboxylase 1 (ODC1) of Recilia dorsalis, yeast two-hybrid fusion (enzyme, UniProt A0A8K1F0V5 1-436)
chain: MRNVSVTDMIHILDPNTAPMDVLRAIALSGVQENAFYILDVGDIVHKHSEWKMKMPRVQPFYAVKCNDSQLVLATLAALGTGFDCASKTEIAKVMDLGVDGSRIIFANPAKMASHIRYAAAQGVDTMTFDNECELYKVKQLHPNARMVLRIRCDATVAQCQLGMKFGCEPLTEAPRLLKLAAALGLTVVGISFHVGSGCQDPPVFRRAISAARDLFDLGAQLGFNMALLDIGGGYPGNRGSNIDKIAEVVNAALDDYFPESLGVQVIAEPGRFYVASAYTLATLVHSKRDTMYYINDGVYGSFNCILYDHAIVKPVPLENKGGKPVVSSVWGPTCDGLDQVVESVLLPPLDIGDWLVFEDMGAYTLPVASTFNGFPVPKVHAVIDESVWHYLKDCLPLTEDHFTVQNNNWKSVWDIPSPEQSTPPSPTPYIYELMA
B2: His-ODC1 (ODC1 of Recilia dorsalis fused with His) (enzyme, UniProt A0A8K1F0V5 1-436)
chain: B1 chain

What was measured:
[1] = target: T1, ornithine decarboxylase antizyme 1 (OAZ1) of Recilia dorsalis, yeast two-hybrid fusion (Recilia dorsalis); test: two-hybrid; Matchmaker Gal4 Two-Hybrid System3 (Clontech), bait plasmid pGBKT7 and prey plasmid pGADT7, yeast strain AH109; growth on DDO and QDO + X-alpha-gal plates, also serially diluted 10^-1 to 10^-4
[2] = target: T2, GST-OAZ1 (OAZ1 of Recilia dorsalis fused with GST) (Recilia dorsalis); test: pull-down; GST-fused proteins on glutathione-Sepharose beads 4 h at 4 °C, His-fused proteins then added 2 h at 4 °C; western blot with antibodies against GST and His

| Binder | binding [1] | binding [2] |
| --- | --- | --- |
| B1 | binds |  |
| B2 |  | binds |
